From patent publication US20200038478A1 (WUHAN GRECTECH CO., LTD., priority 2017, published 2020) come the findings set out here.

This series is described as follows: general procedure: Fmoc solid-phase peptide synthesis; HBTU/HOBt. As to conditions: oxidative folding step, several disulfide bridges, sequence written open.

Plain letter strings leave the end groups untold.

Regarding ASCNGVCSPFEMPPCGSSACRCIPVGLVVGYCRNPSG, the “final HPLC purity” value was no less than 98%.
As to ASCNGVCSPFEMPPCGTSACRCIPVGLVVGYCRNPSG, the “final HPLC purity” value is on record as no less than 98%.
